# Test results: PMC12040169 (PLOS Biology, 2025)
# Some of the results follow.
# System: T1, CTL2-GFP (C. trachomatis L2/434/Bu, GFP-expressing)
# T1 construct: L2/434/Bu, GFP-expressing
# Design: species or system HeLa; Intracellular C. trachomatis growth in HeLa cells, bulk GFP fluorescence relative to DMSO
# Settings: bulk GFP, single well; 28.5 h, 10 µM; inhibitor
row,Compound,% of control remaining
1,CN(C)CCN(Cc1ccccc1)C(=O)NCc1cccnc1 [CBK145048],115.422%
2,CNC(=O)C1(Cc2ccccc2-c2ccccc2)CCN(C(=O)Cc2ccccc2)CC1 [CBK285695],110.286%
3,CC(C)=NNC(=N)Nc1ccccc1 [CBK021452],123.187%
4,COc1ccc(-c2cc(N3CCN(CCN4CCCC4)CC3)ncn2)cc1OC [CBK091173],166.021%
5,COCn1nccc1S(=O)(=O)NCCc1cn2ccccc2n1 [CBK304060],130.909%
6,CCCn1c(CN2CCOCC2)nc2ccccc21 [CBK287784],95.3916%
7,Cn1c(N2CC[C@H](O)C2)nc2cc(C(=O)NCc3ccsc3)ccc21 [CBK307471],148.051%
8,O=C(O)c1ccc2c(c1)C(=O)N(c1ccc(-c3nc(-c4ccccc4)c4ccccc4n3)cc1)C2=O [CBK263311],114.564%
9,CCOc1ccc(C(N)CC(=O)O)c2ccccc12 (stereo not shown) [CBK287120],127.508%
10,Cc1ccc(CN(Cc2ncc[nH]2)C2CC(C)(C)NC(C)(C)C2)o1 [CBK283191],113.266%
11,CC(C(=O)NC(c1ccncc1)c1cccs1)n1ccnc1 (stereo not shown) [CBK281438],146.218%
12,O=C1CC(c2ccc(Br)cc2)Nc2ccc3ccccc3c21 (stereo not shown) [CBK094798],119.035%
13,COCCNc1nccnc1-c1cccnc1 [CBK037376],167.737%
14,CC(/C(=N/O)c1ccccc1)C(O)c1ccccn1 (stereo not shown) [CBK022993],102.551%
15,COc1ccc2c(c1)CCCN2C(=O)Cn1nc(C)cc1C [CBK282042],114.055%
16,COc1ccc([C@@]23CCC(NC(=O)Nc4ccccc4OC(F)F)C[C@@H]2N(C)CC3)cc1OC (stereo partly shown) [CBK047547T],100.771%
17,CCCc1csc(C2CN3CCCC3CO2)n1 (stereo not shown) [CBK304799],107.034%
18,CC1(Cc2ccn[nH]2)SCCCS1 [CBK019308C],87.5214%
19,CCC1(CC)OC(NC[C@@H](C)c2ccccc2)=NC1=O [CBK123983],70.8299%
20,COCC(=O)N1CCC(Oc2ccc3ncccc3c2)(C(=O)O)CC1 [CBK307340],130.106%
21,CCN(CC)C(=O)c1ccc(-c2ccc(NC(C)=O)cc2)nc1 [CBK158850],104.708%
22,CC(C)(C)c1ccc(-c2cnc3ncccc3c2O)cc1 [CBK089628],116.208%
23,CCCCCOc1ccc(Nc2cc(-c3ccc(N(C)C)cc3)ncn2)cc1 [CBK090889],73.0861%
24,Cc1noc(C)c1S(=O)(=O)Nc1c(C(=O)O)sc2ncccc12 [CBK049988],108.896%
25,CS(=O)(=O)N1CC2(CCN(Cc3ccc(Cl)c(Cl)c3)CC2)c2ccccc21 [CBK084043],99.8249%
26,COc1ccc(CNC(=O)N2CCCCC2CO)cc1OC (stereo not shown) [CBK155981],109.599%
27,Nc1cccc(S(=O)(=O)N2CCC(C(=O)O)CC2)c1 [CBK286541],114.221%

# Ordered by number of heavy atoms (falling): part of the list above
row,Compound,% of control remaining
2,CNC(=O)C1(Cc2ccccc2-c2ccccc2)CCN(C(=O)Cc2ccccc2)CC1 [CBK285695],110.286%
12,O=C1CC(c2ccc(Br)cc2)Nc2ccc3ccccc3c21 (stereo not shown) [CBK094798],119.035%
6,CCCn1c(CN2CCOCC2)nc2ccccc21 [CBK287784],95.3916%

# More records.

row,Compound,% of control remaining
1,Cc1ccc(S(=O)(=O)N(CC(O)Cn2c3ccc(Cl)cc3c3cc(Cl)ccc32)c2ccccc2)cc1 (stereo not shown) [CBK263353],118.422%
2,COc1ccc(CCNC(=O)N2CCCC(CO)C2)cc1 (stereo not shown) [CBK156059],107.469%
3,Cc1ccc2nc(Cn3cc(-c4cnn(Cc5ccccc5)c4)cn3)cn2c1 [CBK297125],131.374%
4,CC1Cc2cc(C(O)CN3CCC(O)(c4ccccc4F)CC3)ccc2N1S(C)(=O)=O (stereo not shown) [CBK283091],136.529%
5,O=C(NCc1ccccn1)C(=O)N/N=C/c1ccccc1[N+](=O)[O-] [CBK262204],122.592%
6,CC(C)CC(NC(=O)c1ccco1)c1nc2cccnc2n1C (stereo not shown) [CBK283827],125.54%
7,Cc1cn2c3c(=O)n(C)c(=O)n(C)c3nc2n1CCN1CCOCC1 [CBK270139],139.511%
8,CC(=O)N1CCc2cc(NCc3nc4ccccc4n3C(C)c3ccccc3)ccc21 (stereo not shown) [CBK285621],126.473%
9,O=C(Nc1ccc(Br)cc1C(=O)c1ccccc1)c1ccc([N+](=O)[O-])s1 [CBK066838],92.1895%
10,O=C(Nc1sc2c(c1C(=O)O)CCCC2)c1cc2ccccc2o1 [CBK264551],125.963%
11,CCn1cc(C(=O)N2CCCC2c2nc3ccccc3[nH]2)cn1 (stereo not shown) [CBK283776],130.036%
12,CC(C)NC(=O)[C@@H](C)C1CC[C@@]2(C)CC[C@H](NC(=O)c3cncnc3)[C@@H](C)[C@@H]2[C@H]1O (stereo partly shown) [CBK289454],108.086%
13,COc1ccc(Cn2c(=O)[nH]n(-c3ccccc3)c2=O)cc1F [CBK122772],110.418%
14,Cc1ccc(OCc2nnc(SCC(=O)c3cccc([N+](=O)[O-])c3)n2C)cc1 [CBK268580],139.5%
15,O=C(Nc1cccc2cccnc12)c1cccc2ccccc12 [CBK261473],94.454%
16,FC(F)(F)c1cccc(OCc2ccc(-c3ccccc3)cc2)n1 [CBK115836],156.839%
17,COc1ccc(OC)c(-c2cc(C(=O)O)c(C)o2)c1 [CBK049343],114.034%
18,COc1ccc2[nH]cc(CCNC(=O)N(C)C3CCN(C)C3)c2c1 (stereo not shown) [CBK156004],90.3694%
19,CC1(C)OCC2(CCN(C(C)(C)C)CC2)O1 [CBK038298],121.621%
20,CCC(Oc1cccc(Cl)c1)C(=O)NN1CCN(C)CC1 (stereo not shown) [CBK268135],98.1552%
21,COc1ccc(NS(=O)(=O)c2cc(C(=O)O)c(Cl)cc2Cl)cc1 [CBK095077],100%
22,N#CCCN(C1CCCCC1)S(=O)(=O)c1ccc(-c2ccc([N+](=O)[O-])cc2)cc1 [CBK261382],101.519%
23,O=C(O)c1cccc(CSc2nc3ccccc3o2)c1 [CBK270193],112.156%
24,C=CCN1C(=O)CC2(C1=O)C(=O)N(Cc1ccc(S(=O)(=O)N(CC)CC)cc1)c1ccc(Cl)cc12 (stereo not shown) [CBK075412],97.4584%
25,Cc1cc(C(=O)CSc2nnc(C3CC3)[nH]2)c(C)n1-c1cccc(C(F)(F)F)c1 [CBK295310],117.35%
26,CC(C)c1ccc(C(C)NC(=O)c2cccn(CC(=O)NC3CCCC3)c2=O)cc1 (stereo not shown) [CBK286018],117.213%
27,COc1ccc2[nH]cc(CC(=O)Nc3nc4c(OC)cccc4s3)c2c1 [CBK149279],123.649%

row,Compound,% of control remaining
1,CCOC(=O)C(Cc1ccccc1)C(=O)Nc1ccc(Cl)cc1 (stereo not shown) [CBK261463],108.396%
2,CCn1c(SCc2cccnc2)nc2c(c1=O)SC(C)C2 (stereo not shown) [CBK287643],102.802%
3,CN(C)CC(=O)N1CCc2nc(-c3ccccc3F)sc2C1 [CBK281918],147.139%
4,Cc1cc(=O)n2c(C(=O)Nc3cccc(C(=O)O)c3)c(C(=O)Nc3cccc(C)c3C)sc2n1 [CBK297545],87.9292%
5,CN(C)CCN(C)Cc1ccc2c(c1)Cc1ccccc1-2 [CBK261856],116.603%
6,O=C(c1cnc(-c2ccncc2)s1)N(CC(F)(F)F)C1CCC1 [CBK304119],112.798%
7,O=C(c1cccnc1)C1CCN(C(=O)C2CCCCC2)CC1 [CBK283817],119.89%
8,O=C(NCC(=O)N(c1cccc(C(F)(F)F)c1)C(C(=O)NCc1ccco1)c1ccccc1F)c1ccco1 (stereo not shown) [CBK084740],92.5971%
9,O=C1c2ccc(Oc3ccc4c(c3)C(=O)N(c3cccnc3)C4=O)cc2C(=O)N1c1cccnc1 [CBK262773],118.784%
10,COc1ccccc1CN(CC1CCNCC1)C(=O)NC(c1ccccc1)c1ccccc1 [CBK049741],86.6439%
11,Cc1nc(C)c(C(=O)Nc2nn(C)c3cccc(N4CCOCC4)c23)o1 [CBK306534],130.917%
12,Cc1cc(N2C(=O)c3oc4ccccc4c(=O)c3C2c2ccncc2)no1 (stereo not shown) [CBK287780],105.571%
13,O=C(Cc1c[nH]c2ccccc12)N1CCC2(CCCN(C(=O)c3cscn3)C2)C1 (stereo not shown) [CBK131590],117.35%
14,O=C(O)CC(Cc1ccc(Cl)cc1)C(=O)Nc1ccccc1I (stereo not shown) [CBK262021],92.949%
15,COc1ccc(CCC(=O)Nc2ncccc2OCCCC#N)cc1 [CBK304957],96.6175%
16,Cc1ccc(C(=O)COC(=O)c2cc(O)nc3ccccc23)cc1[N+](=O)[O-] [CBK264085],114.403%
17,Cn1ccc(C(=O)NCc2cccnc2OCC(F)(F)F)cc1=O [CBK305574],144.458%
18,CCOC(=O)C1CCCN(C(=O)Cn2ccc3sccc3c2=O)C1 (stereo not shown) [CBK304099],114.845%
19,CCN(CC)C(=O)C1CCN(S(=O)(=O)c2ccc(C)cc2)CC1 [CBK157834],100.728%
20,COc1cncc(-c2cccc(NCC(c3cccnc3)N(C)C)n2)c1 (stereo not shown) [CBK037741],149.712%
21,c1coc(-c2cc(NC3CCCCC3)ncn2)c1 [CBK090901],102.009%
22,Cc1cc(N(C)C)cc(C2CCCN(C(=O)c3cccc(F)c3)C2)n1 (stereo not shown) [CBK282003],134.526%
23,COC1=CC2CCNC(CCCCC3NCCc4cc(OC)c(OC)cc43)C2C=C1OC (stereo not shown) [CBK013354],117.281%
24,CC(C)(C)OC(=O)NNC(=S)Nc1ccc(S(N)(=O)=O)cc1 [CBK267107],168.841%
25,COc1nccnc1-c1cc2ccccc2s1 [CBK106781],138.342%

# An excerpt of these results, tab-delimited:
row	Compound	% of control remaining
1	CCOC(=O)C(Cc1ccccc1)C(=O)Nc1ccc(Cl)cc1 (stereo not shown) [CBK261463]	108.396%
25	COc1nccnc1-c1cc2ccccc2s1 [CBK106781]	138.342%
